Measured values reported in patent publication US11369609B2, “Small molecule Wnt inhibitor as treatment for dyslipidemia” (Yale University, priority 2019, dated 2022).

Sequences of proteins named here, by UniProt entry; tags and fusion partners are left off. A change or cut given only in a name is not applied to a line headed by its entry.
UniProt P06537: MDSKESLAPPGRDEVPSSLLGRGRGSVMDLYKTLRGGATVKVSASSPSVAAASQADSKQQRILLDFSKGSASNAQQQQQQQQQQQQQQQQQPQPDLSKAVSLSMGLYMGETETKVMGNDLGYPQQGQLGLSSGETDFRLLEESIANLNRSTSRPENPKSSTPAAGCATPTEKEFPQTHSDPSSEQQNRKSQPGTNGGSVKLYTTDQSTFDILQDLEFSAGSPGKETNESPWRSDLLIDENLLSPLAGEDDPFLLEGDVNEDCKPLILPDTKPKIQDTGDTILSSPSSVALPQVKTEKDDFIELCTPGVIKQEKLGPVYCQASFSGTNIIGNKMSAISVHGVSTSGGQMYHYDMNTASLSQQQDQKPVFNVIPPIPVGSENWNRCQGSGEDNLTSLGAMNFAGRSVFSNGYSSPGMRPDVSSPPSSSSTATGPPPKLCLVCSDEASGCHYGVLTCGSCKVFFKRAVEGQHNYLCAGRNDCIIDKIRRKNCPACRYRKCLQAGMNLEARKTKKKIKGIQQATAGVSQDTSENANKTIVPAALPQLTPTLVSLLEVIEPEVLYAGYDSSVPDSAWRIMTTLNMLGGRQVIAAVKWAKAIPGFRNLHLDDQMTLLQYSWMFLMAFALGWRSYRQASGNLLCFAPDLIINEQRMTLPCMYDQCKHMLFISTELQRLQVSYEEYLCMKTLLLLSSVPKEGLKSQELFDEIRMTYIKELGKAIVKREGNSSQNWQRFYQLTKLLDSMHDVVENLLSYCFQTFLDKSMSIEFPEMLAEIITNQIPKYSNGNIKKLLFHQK

What was measured:
GR [1] = target: T1, GR (Mus musculus, UniProt P06537); details: control siRNA+DEX vs input DNA
GR [2] = target: T1, GR; details: DEX 100 nM for 18 hours, significant p and q

## C[C@@H]1C[C@H]2[C@@H]3CCC4=CC(=O)C=C[C@]4(C)[C@@]3(F)[C@@H](O)C[C@]2(C)[C@@]1(O)C(=O)COP(=O)(O)O [DEX, Dexamethasone phosphate]
GR [1]
  GR binding at ChIP-seq peak locations of Wnt pathway genes (Tcf7l2, Arid1b, Smad4): massively enhanced binding
GR [2]
  number of DEX-responsive genes (RNA-seq): 231 genes
